From the supplement of paper PMC10849652
This is one part of the list.

Protein sequences, listed by entry. Tags and fused reporters are not part of them. Lines headed by an entry give the natural chain unless they say otherwise; changes in a name come on top.
UniProt Q9Y624, whole entry, looked up, stated change not applied: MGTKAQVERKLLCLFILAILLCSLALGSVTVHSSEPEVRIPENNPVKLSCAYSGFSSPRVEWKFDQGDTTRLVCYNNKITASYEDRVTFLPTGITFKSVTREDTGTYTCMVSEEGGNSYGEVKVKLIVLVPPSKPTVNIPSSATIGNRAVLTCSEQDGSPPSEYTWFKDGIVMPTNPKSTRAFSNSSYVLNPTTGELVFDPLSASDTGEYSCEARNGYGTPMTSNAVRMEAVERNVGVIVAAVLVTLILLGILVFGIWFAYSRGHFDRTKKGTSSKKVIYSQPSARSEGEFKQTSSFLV
UniProt Q9C073: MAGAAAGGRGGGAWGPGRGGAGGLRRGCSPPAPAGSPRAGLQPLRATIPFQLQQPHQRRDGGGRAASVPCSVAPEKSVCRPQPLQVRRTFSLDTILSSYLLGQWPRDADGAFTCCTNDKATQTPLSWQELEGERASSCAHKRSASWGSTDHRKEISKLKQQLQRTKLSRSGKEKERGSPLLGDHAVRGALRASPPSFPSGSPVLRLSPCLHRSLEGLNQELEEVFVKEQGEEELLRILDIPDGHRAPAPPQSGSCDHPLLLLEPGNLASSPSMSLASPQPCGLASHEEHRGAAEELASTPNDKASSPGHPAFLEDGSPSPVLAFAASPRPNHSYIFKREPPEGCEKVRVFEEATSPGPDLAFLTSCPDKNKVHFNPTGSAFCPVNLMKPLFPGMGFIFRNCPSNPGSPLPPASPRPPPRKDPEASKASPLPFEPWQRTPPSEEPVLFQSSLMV
UniProt Q01469, whole entry, looked up: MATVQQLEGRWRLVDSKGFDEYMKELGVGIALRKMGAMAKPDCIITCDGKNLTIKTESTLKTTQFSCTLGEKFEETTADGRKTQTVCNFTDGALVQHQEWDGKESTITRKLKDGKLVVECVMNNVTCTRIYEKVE
UniProt Q9NZB2: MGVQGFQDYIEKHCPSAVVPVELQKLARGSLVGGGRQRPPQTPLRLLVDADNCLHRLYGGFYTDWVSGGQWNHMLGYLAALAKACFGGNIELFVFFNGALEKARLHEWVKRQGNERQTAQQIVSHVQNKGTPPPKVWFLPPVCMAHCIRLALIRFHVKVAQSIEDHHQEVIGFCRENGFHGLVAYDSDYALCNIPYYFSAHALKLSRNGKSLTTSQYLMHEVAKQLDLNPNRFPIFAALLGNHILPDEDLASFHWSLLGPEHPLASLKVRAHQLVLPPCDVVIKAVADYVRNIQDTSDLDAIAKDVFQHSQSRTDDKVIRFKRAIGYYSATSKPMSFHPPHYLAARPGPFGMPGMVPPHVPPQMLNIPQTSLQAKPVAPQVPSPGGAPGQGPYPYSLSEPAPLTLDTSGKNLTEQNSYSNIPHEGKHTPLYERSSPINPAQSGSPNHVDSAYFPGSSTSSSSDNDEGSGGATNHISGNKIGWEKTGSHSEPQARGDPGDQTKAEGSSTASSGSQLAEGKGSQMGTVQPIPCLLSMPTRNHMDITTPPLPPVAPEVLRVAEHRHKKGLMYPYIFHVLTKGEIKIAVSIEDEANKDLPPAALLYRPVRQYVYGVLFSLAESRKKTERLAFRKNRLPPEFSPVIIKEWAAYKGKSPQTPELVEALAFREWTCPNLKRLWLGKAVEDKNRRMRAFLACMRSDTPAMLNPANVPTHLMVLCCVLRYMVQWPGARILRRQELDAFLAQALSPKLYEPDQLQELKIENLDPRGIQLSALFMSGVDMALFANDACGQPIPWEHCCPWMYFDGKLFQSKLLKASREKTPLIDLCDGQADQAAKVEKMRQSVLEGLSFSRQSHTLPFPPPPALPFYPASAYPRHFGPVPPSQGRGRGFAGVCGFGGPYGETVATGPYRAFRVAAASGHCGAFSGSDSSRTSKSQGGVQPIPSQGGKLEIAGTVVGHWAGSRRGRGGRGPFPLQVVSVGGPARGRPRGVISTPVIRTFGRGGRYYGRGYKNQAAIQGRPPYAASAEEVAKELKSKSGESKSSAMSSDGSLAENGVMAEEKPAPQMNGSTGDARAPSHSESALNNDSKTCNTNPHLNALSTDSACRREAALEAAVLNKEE
UniProt Q14674: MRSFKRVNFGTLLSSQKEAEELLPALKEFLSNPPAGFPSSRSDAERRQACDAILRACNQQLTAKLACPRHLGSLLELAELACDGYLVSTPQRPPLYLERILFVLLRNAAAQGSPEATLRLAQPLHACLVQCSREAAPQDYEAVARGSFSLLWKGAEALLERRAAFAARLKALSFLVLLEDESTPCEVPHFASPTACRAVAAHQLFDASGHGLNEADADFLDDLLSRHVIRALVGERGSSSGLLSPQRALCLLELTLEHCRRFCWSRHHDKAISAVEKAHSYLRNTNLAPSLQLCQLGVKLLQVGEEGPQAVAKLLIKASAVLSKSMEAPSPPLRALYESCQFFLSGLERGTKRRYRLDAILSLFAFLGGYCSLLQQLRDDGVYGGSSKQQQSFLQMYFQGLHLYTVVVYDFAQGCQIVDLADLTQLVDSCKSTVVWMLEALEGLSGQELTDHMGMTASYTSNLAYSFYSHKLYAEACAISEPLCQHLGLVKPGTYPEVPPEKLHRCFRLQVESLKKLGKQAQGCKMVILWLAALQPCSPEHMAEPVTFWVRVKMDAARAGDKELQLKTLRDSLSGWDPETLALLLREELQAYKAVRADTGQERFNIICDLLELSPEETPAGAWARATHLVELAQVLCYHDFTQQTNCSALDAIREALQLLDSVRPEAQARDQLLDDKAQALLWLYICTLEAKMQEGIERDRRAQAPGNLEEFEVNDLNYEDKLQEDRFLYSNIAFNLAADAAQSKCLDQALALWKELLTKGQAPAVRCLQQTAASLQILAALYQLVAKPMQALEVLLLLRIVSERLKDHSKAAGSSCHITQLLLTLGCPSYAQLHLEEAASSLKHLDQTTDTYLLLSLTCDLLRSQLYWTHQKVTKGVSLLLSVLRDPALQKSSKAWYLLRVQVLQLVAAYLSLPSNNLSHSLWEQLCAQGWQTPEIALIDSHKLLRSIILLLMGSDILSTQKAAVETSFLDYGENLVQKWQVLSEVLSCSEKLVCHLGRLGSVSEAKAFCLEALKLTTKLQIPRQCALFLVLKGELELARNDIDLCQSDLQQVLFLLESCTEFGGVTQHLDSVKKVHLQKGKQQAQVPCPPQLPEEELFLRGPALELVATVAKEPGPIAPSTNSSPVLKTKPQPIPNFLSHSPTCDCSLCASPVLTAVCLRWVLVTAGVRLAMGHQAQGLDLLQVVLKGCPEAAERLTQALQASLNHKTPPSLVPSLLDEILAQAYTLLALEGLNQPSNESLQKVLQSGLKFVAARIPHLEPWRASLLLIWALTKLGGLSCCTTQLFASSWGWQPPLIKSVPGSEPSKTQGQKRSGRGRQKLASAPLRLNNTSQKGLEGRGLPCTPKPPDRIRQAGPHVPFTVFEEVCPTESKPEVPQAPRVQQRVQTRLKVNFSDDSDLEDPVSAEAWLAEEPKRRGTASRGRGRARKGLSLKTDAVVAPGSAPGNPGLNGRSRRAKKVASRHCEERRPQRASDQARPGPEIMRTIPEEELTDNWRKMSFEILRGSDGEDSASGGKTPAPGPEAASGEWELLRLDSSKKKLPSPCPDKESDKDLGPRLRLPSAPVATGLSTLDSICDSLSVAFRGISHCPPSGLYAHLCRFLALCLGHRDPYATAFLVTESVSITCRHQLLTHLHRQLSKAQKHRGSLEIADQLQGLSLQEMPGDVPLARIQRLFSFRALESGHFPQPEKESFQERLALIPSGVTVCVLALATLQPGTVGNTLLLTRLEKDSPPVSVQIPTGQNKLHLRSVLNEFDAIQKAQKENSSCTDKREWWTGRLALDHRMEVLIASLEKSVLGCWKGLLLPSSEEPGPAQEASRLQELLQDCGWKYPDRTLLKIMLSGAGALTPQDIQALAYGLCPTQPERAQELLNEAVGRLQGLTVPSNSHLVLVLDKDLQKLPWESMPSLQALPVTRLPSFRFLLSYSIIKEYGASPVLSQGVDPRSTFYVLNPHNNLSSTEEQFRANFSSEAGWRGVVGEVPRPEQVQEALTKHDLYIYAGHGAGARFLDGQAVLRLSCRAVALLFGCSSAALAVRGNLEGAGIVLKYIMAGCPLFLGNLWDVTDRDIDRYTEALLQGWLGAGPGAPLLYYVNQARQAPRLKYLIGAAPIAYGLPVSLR
UniProt Q9HBU6: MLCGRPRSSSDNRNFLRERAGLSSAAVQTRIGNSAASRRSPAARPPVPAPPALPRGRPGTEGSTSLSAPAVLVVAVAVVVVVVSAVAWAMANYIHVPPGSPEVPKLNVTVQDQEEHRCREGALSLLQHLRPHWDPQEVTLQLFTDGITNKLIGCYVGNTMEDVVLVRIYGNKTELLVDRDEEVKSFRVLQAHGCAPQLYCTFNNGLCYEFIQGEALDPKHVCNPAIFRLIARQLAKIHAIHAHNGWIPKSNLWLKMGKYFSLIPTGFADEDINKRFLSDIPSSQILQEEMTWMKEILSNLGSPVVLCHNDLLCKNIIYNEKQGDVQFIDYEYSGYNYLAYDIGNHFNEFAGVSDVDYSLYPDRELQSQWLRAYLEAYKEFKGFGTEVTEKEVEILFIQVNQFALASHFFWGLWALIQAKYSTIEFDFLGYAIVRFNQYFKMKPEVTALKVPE
UniProt Q15024, whole entry, looked up: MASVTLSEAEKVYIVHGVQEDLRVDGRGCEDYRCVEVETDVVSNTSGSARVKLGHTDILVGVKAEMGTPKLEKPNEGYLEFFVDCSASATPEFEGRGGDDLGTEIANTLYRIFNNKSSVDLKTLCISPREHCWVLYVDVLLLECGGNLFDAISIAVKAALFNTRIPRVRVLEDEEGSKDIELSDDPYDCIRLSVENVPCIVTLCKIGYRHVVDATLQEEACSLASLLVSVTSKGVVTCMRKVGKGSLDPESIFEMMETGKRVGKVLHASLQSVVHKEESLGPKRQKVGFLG
UniProt Q5JUQ0: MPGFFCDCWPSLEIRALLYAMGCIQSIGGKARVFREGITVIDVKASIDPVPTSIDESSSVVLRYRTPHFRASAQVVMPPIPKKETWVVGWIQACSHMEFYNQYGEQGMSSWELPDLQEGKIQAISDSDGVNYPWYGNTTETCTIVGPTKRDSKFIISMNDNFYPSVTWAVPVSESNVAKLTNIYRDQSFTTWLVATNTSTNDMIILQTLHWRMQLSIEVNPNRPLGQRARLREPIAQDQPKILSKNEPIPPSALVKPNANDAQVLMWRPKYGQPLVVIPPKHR
UniProt Q9UNN5: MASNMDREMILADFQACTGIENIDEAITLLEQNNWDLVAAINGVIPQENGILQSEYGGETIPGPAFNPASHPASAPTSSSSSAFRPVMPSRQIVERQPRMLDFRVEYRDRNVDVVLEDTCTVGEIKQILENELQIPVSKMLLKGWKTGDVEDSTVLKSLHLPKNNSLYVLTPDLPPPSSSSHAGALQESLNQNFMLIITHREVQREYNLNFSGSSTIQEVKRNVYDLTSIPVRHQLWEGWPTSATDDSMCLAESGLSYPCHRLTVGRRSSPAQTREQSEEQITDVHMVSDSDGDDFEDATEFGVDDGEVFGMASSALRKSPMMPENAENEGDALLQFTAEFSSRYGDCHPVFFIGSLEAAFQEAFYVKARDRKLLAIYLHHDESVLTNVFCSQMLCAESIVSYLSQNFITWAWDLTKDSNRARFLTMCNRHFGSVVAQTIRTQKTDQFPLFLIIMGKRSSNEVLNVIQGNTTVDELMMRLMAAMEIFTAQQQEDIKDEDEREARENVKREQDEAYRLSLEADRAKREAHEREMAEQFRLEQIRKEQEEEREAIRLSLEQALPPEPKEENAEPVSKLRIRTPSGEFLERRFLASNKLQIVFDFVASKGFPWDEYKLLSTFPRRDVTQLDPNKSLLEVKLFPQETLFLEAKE
UniProt O60645: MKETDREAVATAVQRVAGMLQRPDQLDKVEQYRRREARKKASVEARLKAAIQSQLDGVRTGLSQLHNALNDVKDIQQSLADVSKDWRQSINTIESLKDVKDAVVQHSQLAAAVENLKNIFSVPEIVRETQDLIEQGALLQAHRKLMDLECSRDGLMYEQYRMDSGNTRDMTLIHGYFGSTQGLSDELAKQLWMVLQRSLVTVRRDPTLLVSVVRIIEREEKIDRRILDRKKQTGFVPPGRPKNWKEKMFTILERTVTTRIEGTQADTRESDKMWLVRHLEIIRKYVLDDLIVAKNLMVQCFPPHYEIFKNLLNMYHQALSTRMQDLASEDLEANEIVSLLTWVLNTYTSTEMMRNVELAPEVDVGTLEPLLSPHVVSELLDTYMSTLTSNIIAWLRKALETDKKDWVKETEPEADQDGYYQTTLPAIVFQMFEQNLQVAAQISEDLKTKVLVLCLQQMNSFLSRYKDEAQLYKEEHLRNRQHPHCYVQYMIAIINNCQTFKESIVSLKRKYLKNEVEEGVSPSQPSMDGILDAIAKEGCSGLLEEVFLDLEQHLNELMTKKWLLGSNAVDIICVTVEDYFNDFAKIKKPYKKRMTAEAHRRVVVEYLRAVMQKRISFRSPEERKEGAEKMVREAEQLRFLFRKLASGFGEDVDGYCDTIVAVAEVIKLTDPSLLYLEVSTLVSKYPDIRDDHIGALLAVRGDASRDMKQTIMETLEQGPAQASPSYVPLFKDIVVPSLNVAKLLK

Assays:
Experiment in all cases: log2 fold change, soluble protein after heating vs DMSO (PISA); higher = thermal stabilisation; K562 lysate, 10 uM; active = over 0.2 and 3.5 SD of the protein, either way, in both replicates (recomputed)
nilotinib = compound: Cc1cn(-c2cc(NC(=O)c3ccc(C)c(Nc4nccc(-c5cccnc5)n4)c3)cc(C(F)(F)F)c2)cn1 [nilotinib]
Procedure, shortened: (§1)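 Dounce homogenisation of K562 pellets in PBS pH 7.4 with 1 mM MgCl2 produced a crude extract, used at 1 mg/mL protein. Exposure to 10 μM compound lasted 30 min, and aliquots were then heated for 3 min across 48°C-58°C, pooled and brought to 0.5% NP-40 at 4°C. The supernatant after 21,000xg for 90 min was quantified by TMTpro 16plex LC-MS/MS with channel sums equalised. Duplicate values are given as log-two fold change in thermal stability relative to solvent controls.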

[1] = compound: Cc1nc(Nc2n[nH]c3c2CN(C(=O)N[C@H](CN(C)C)c2ccccc2)C3(C)C)c2sccc2n1
Procedure, shortened: as §1

dasatinib = compound: Cc1nc(Nc2ncc(C(=O)Nc3c(C)cccc3Cl)s2)cc(N2CCN(CCO)CC2)n1 [dasatinib]
Procedure, shortened: as §1

[2] = compound: Cc1ncc(-c2ccnc(Nc3ccc(S(C)(=O)=O)cc3)n2)n1C(C)C
Procedure, shortened: as §1

[3] = compound: Cn1cc(-c2ccc3c(c2)CCN3C(=O)Cc2cccc(C(F)(F)F)c2)c2c(N)ncnc21
Procedure, shortened: as §1

quisinostat = compound: Cn1cc(CNCC2CCN(c3ncc(C(=O)NO)cn3)CC2)c2ccccc21 [quisinostat]
Procedure, shortened: as §1

tipifarnib = compound: Cn1cncc1[C@@](N)(c1ccc(Cl)cc1)c1ccc2c(c1)c(-c1cccc(Cl)c1)cc(=O)n2C [tipifarnib]
Procedure, shortened: as §1

[4] = compound: NC(=O)Nc1cc(-c2cccc(F)c2)sc1C(=O)N[C@H]1CCCNC1
Procedure, shortened: as §1

[5] = compound: NC(=O)c1cnc(N[C@@H]2CCCC[C@@H]2N)nc1Nc1cccc(-n2nccn2)c1
Procedure, shortened: as §1

[6] = compound: NC1(c2ccc(-c3nc4ccn5c(=O)[nH]nc5c4cc3-c3ccccc3)cc2)CCC1
Procedure, shortened: as §1

Measured: log2 fold change

F11R (UniProt Q9Y624)
inactive: nilotinib 0.042 | [1] 0.064 | dasatinib 0.02 | [2] 0.03 | [3] -0.001 | quisinostat -0.036 | tipifarnib -0.034 | [4] 0.034 | [5] -0.007 | [6] 0.018

FAH (UniProt P16930)
inactive: nilotinib 0.054 | [1] -0.011 | dasatinib 0.009 | [2] 0.007 | [3] 0.003 | quisinostat 0.02 | tipifarnib -0.004 | [4] -0.034 | [5] -0.037 | [6] -0.017

FAIM isoform 2 (UniProt Q9NVQ4)
inactive: nilotinib 0.063 | [1] 0.086 | dasatinib -0.464 | [2] 0.041 | [3] -0.058 | quisinostat 0.004 | tipifarnib -0.148 | [4] 0.04 | [5] -0.093 | [6] 0.035

FAM117A (UniProt Q9C073)
inactive: nilotinib 0.007 | [1] 0.098 | dasatinib -0.034 | [2] 0.023 | [3] -0.054 | quisinostat -0.058 | tipifarnib 0.009 | [4] 0.051 | [5] 0.01 | [6] 0.009

EVI5 isoform 2 (UniProt O60447)
inactive: nilotinib -0.005 | [1] -0.071 | dasatinib -0.143 | [2] 0.109 | [3] 0.109 | quisinostat -0.068 | tipifarnib 0.012 | [4] 0.083 | [5] 0.07 | [6] 0.052

EZH2 isoform 2 (UniProt Q15910)
inactive: nilotinib 0.002 | [1] 0.163 | dasatinib 0 | [2] -0.078 | [3] 0.026 | quisinostat -0.13 | tipifarnib -0.027 | [4] 0.034 | [5] 0.01 | [6] -0.04

FABP5 (UniProt Q01469)
inactive: nilotinib 0.071 | [1] 0.048 | dasatinib 0.072 | [2] 0.026 | [3] 0.006 | quisinostat 0.141 | tipifarnib 0.012 | [4] -0.087 | [5] -0.009 | [6] 0.023

FAM192A (UniProt Q9GZU8)
inactive: nilotinib -0.009 | [1] -0.004 | dasatinib 0.084 | [2] -0.025 | [3] 0.028 | quisinostat 0 | tipifarnib 0.023 | [4] 0.008 | [5] 0.008 | [6] 0.029

ESRRA (UniProt P11474)
inactive: nilotinib -0.121 | [1] 0.016 | dasatinib 0.061 | [2] 0.035 | [3] -0.096 | quisinostat -0.038 | tipifarnib 0.008 | [4] 0.158 | [5] -0.016 | [6] 0.016

FAM120A isoform 6 (UniProt Q9NZB2)
inactive: nilotinib -0.029 | [1] -0.024 | dasatinib -0.033 | [2] 0.03 | [3] 0 | quisinostat -0.007 | tipifarnib 0.012 | [4] 0.01 | [5] -0.01 | [6] 0.01

ESPL1 (UniProt Q14674)
inactive: nilotinib -0.013 | [1] 0.006 | dasatinib 0.044 | [2] 0.054 | [3] 0.02 | quisinostat 0.066 | tipifarnib -0.024 | [4] 0.021 | [5] -0.014 | [6] -0.055

ETNK1 (UniProt Q9HBU6)
inactive: nilotinib -0.086 | [1] 0.021 | dasatinib 0.039 | [2] 0.019 | [3] -0.022 | quisinostat -0.028 | tipifarnib 0 | [4] 0.02 | [5] 0.045 | [6] -0.031

EXOC1 (UniProt Q9NV70)
inactive: nilotinib -0.005 | [1] 0.013 | dasatinib -0.067 | [2] 0.013 | [3] 0.097 | quisinostat 0.024 | tipifarnib 0.005 | [4] 0.024 | [5] 0.012 | [6] -0.032

FAM207A (UniProt Q9NSI2)
inactive: nilotinib -0.004 | [1] 0.012 | dasatinib 0.007 | [2] -0.029 | [3] 0.004 | quisinostat -0.005 | tipifarnib 0.008 | [4] 0.016 | [5] -0.006 | [6] -0.002

EXOSC7 (UniProt Q15024)
inactive: nilotinib 0.028 | [1] -0.007 | dasatinib -0.021 | [2] 0.011 | [3] 0.016 | quisinostat 0.014 | tipifarnib -0.023 | [4] 0.01 | [5] 0.008 | [6] -0.002

FADS1, A0A0A0MR51
inactive: nilotinib 0.065 | [1] -0.078 | dasatinib 0.04 | [2] 0.02 | [3] 0.079 | quisinostat 0.004 | tipifarnib 0.069 | [4] 0.008 | [5] -0.114 | [6] 0.022

FAM210B (UniProt Q96KR6)
inactive: nilotinib 0.133 | [1] -0.079 | dasatinib 0.037 | [2] -0.025 | [3] -0.06 | quisinostat -0.098 | tipifarnib -0.019 | [4] 0.049 | [5] -0.032 | [6] -0.018

EXOSC6 (UniProt Q5RKV6)
inactive: nilotinib 0.023 | [1] -0.014 | dasatinib 0 | [2] 0 | [3] -0.01 | quisinostat 0.014 | tipifarnib 0.023 | [4] 0.002 | [5] -0.028 | [6] -0.008

ESYT1 isoform 2 (UniProt Q9BSJ8)
inactive: nilotinib 0.005 | [1] -0.024 | dasatinib 0.018 | [2] -0.035 | [3] 0.04 | quisinostat 0.079 | tipifarnib 0.031 | [4] -0.046 | [5] 0 | [6] 0.023

FAM78A (UniProt Q5JUQ0)
inactive: nilotinib 0.034 | [1] -0.037 | dasatinib 0.243 | [2] 0.031 | [3] -0.1 | quisinostat -0.005 | tipifarnib 0.023 | [4] 0.027 | [5] -0.042 | [6] 0.007

FAM222B (UniProt Q8WU58)
inactive: nilotinib -0.078 | [1] 0.115 | dasatinib -0.018 | [2] 0.092 | [3] 0.041 | quisinostat -0.004 | tipifarnib 0.124 | [4] -0.075 | [6] 0.022

ESD (UniProt P10768)
inactive: nilotinib 0.002 | [1] 0.046 | dasatinib -0.011 | [2] 0.033 | [3] 0.01 | quisinostat 0.065 | tipifarnib 0.007 | [4] -0.036 | [5] -0.017 | [6] -0.002

FAM3A (UniProt P98173)
inactive: nilotinib 0.062 | [1] 0.009 | dasatinib 0.042 | [2] -0.028 | [3] 0.013 | quisinostat 0.048 | tipifarnib -0.053 | [4] -0.055 | [5] 0.017 | [6] 0.011

FAM172A (UniProt Q8WUF8)
inactive: nilotinib 0.295 | [1] 0.006 | dasatinib 0.02 | [2] -0.046 | [3] 0.282 | tipifarnib 0.011 | [5] 0.013 | [6] -0.078

FAF1 (UniProt Q9UNN5)
inactive: nilotinib -0.011 | [1] 0.003 | dasatinib 0.04 | [2] 0 | [3] 0.016 | quisinostat 0.054 | tipifarnib 0.002 | [4] -0.009 | [5] -0.003 | [6] -0.005

EXOC3 (UniProt O60645)
inactive: nilotinib -0.013 | [1] 0.012 | dasatinib -0.06 | [2] 0.039 | [3] 0.021 | quisinostat -0.115 | tipifarnib -0.018 | [4] 0.063 | [5] 0.005 | [6] -0.005

FAM76A isoform 3 (UniProt Q8TAV0)
inactive: nilotinib 0.079 | [1] 0.162 | dasatinib 0.057 | [2] 0.038 | [3] 0.05 | quisinostat 0.164 | tipifarnib -0.189 | [4] 0.034 | [5] 0.063 | [6] 0.013

EXOC7 (UniProt Q9UPT5)
inactive: nilotinib -0.004 | [1] 0.014 | dasatinib -0.083 | [2] 0.012 | [3] 0.001 | quisinostat -0.021 | tipifarnib -0.036 | [4] 0.012 | [5] 0.007 | [6] -0.037

FAM3A (UniProt Q9BU27)
inactive: nilotinib -0.054 | [1] 0.039 | dasatinib -0.3 | [2] -0.194 | [3] 0.085 | tipifarnib 0.088

EXO1 (UniProt Q9UQ84)
inactive: nilotinib 0.01 | [1] 0.057 | [2] 0.076 | quisinostat -0.01 | tipifarnib 0.001 | [4] 0.082 | [5] 0.03 | [6] -0.306

FAM118B (UniProt Q9BPY3)
inactive: nilotinib -0.018 | [1] 0.002 | dasatinib -0.039 | [2] -0.009 | [3] -0.008 | quisinostat -0.06 | tipifarnib -0.015 | [4] 0.021 | [5] 0.032 | [6] -0.007

2 neighbouring records from above, for reference:
FAM3A (UniProt Q9BU27)
inactive: nilotinib -0.054 | [1] 0.039 | dasatinib -0.3 | [2] -0.194 | [3] 0.085 | tipifarnib 0.088

EXO1 (UniProt Q9UQ84)
inactive: nilotinib 0.01 | [1] 0.057 | [2] 0.076 | quisinostat -0.01 | tipifarnib 0.001 | [4] 0.082 | [5] 0.03 | [6] -0.306
